These results are taken from the supplement of paper PMC10849652.

By UniProt entry, the sequences of proteins in these tests, tags left out. Where a name states a change or a piece, a line headed by the entry shows the natural chain unless it says otherwise.
UniProt P16989, whole entry, looked up: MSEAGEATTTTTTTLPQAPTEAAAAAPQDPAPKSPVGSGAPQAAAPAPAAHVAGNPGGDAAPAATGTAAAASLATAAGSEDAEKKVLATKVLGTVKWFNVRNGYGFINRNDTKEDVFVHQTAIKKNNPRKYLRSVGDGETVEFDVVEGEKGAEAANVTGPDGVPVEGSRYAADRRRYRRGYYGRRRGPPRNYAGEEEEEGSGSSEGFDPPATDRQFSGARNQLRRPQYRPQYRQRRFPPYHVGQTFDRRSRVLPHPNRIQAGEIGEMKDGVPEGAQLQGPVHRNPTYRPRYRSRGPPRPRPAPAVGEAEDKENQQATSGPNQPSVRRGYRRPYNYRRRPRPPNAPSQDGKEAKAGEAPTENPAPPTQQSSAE
UniProt P07947, whole entry, looked up: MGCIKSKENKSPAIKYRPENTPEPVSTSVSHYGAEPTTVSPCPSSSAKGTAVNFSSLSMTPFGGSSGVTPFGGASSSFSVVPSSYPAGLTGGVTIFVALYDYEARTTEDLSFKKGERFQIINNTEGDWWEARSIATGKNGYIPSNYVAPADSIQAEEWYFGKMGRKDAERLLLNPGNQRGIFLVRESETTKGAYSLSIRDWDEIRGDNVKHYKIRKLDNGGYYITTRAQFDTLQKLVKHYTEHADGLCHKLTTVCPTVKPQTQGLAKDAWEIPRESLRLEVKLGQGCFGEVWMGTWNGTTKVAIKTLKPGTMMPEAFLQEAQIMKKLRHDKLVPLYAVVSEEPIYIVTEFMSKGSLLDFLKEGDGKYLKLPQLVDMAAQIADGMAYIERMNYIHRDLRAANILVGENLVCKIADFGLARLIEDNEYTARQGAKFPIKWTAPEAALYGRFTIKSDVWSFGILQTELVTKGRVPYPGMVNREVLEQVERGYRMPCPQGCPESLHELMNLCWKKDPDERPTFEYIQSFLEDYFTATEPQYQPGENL
UniProt Q8WV99: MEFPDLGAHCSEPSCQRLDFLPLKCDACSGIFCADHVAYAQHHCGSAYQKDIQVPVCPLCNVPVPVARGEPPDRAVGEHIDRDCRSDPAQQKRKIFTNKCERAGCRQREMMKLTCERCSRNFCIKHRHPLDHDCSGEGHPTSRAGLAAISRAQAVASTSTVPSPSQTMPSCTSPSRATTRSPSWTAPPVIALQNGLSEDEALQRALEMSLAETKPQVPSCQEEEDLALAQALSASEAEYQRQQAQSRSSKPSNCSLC
UniProt Q8WU90: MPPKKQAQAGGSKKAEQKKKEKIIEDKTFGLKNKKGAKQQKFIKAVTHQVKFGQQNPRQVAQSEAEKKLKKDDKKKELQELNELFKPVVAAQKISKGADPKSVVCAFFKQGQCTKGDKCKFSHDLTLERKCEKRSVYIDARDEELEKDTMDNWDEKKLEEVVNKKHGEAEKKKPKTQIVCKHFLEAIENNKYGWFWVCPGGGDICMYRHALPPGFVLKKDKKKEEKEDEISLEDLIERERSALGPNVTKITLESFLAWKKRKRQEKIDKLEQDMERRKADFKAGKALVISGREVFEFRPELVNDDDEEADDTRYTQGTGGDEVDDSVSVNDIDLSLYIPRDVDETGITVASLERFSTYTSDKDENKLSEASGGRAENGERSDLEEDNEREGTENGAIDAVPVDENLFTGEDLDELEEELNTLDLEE
UniProt Q9H6S0: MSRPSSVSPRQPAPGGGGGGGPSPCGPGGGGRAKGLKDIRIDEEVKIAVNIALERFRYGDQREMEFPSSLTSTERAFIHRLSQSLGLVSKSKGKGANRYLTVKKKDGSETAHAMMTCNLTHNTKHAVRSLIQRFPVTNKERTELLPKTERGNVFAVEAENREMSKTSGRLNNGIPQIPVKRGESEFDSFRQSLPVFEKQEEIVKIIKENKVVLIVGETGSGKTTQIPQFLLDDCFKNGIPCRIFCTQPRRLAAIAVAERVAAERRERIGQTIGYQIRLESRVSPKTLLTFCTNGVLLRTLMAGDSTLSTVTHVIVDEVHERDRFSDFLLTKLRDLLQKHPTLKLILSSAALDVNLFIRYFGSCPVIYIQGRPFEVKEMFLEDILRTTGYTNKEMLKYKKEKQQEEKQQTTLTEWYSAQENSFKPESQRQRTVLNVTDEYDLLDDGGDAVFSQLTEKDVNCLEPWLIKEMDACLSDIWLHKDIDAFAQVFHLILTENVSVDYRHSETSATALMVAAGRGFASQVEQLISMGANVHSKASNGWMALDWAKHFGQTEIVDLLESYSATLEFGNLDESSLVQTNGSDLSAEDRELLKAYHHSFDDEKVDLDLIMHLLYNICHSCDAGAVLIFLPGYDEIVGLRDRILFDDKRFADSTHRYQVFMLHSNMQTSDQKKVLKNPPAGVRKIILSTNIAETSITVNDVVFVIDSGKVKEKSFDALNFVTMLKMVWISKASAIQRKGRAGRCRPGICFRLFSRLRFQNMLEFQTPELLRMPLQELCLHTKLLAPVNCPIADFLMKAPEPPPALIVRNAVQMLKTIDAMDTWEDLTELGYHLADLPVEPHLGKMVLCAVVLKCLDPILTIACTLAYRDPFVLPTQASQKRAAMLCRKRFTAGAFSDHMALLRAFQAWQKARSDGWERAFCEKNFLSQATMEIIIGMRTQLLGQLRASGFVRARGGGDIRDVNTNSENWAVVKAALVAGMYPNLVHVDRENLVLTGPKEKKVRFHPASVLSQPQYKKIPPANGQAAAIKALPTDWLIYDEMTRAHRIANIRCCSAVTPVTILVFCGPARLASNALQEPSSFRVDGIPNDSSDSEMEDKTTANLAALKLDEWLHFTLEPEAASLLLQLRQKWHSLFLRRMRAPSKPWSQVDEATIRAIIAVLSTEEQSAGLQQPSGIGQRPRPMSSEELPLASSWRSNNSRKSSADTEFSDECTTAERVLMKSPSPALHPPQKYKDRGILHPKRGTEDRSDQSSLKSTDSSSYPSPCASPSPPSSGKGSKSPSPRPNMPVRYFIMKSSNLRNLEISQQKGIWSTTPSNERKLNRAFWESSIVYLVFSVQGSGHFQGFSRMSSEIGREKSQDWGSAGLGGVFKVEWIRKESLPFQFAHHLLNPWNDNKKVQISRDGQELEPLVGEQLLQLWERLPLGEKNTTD
UniProt O43592: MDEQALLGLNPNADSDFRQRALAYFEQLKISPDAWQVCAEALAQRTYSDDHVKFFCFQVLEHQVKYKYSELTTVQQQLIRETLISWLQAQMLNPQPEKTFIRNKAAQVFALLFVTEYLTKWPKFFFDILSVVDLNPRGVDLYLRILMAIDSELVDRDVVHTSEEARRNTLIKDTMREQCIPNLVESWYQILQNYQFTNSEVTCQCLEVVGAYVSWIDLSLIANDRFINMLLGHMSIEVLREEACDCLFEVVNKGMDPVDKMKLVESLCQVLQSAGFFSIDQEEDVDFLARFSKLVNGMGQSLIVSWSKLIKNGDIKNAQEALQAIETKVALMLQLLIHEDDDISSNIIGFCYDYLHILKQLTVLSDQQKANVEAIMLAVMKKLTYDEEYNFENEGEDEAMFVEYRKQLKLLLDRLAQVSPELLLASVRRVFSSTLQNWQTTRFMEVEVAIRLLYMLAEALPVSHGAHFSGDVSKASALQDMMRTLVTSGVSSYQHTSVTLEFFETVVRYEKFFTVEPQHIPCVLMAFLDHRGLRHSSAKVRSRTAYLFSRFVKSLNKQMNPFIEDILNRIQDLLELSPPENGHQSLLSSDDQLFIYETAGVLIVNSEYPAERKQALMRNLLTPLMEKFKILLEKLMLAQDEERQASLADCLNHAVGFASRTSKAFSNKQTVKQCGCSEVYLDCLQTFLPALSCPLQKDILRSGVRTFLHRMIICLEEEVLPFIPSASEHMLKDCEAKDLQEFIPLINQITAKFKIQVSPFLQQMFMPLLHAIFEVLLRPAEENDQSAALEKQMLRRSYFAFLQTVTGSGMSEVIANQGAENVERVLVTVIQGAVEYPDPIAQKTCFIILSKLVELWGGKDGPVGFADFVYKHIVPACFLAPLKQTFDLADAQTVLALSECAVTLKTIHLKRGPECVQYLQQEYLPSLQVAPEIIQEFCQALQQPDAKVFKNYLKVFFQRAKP
UniProt Q86U90: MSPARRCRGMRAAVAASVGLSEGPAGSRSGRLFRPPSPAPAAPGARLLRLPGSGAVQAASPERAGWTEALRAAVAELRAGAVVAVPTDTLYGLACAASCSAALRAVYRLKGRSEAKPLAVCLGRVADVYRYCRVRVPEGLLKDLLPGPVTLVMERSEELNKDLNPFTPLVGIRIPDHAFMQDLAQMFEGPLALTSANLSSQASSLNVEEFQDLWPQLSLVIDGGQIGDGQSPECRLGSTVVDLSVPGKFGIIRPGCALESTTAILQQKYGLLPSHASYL
UniProt P25490, whole entry, looked up: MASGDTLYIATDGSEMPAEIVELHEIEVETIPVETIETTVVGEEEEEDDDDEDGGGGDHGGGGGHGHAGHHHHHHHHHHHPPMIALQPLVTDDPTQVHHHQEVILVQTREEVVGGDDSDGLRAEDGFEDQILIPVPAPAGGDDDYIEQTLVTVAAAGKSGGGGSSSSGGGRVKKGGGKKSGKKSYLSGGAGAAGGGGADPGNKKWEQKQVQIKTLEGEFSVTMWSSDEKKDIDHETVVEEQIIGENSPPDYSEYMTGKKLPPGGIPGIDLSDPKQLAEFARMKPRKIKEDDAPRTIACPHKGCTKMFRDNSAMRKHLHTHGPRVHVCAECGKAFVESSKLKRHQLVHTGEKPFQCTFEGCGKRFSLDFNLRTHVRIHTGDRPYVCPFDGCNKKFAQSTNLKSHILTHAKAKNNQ
UniProt Q8N5A5: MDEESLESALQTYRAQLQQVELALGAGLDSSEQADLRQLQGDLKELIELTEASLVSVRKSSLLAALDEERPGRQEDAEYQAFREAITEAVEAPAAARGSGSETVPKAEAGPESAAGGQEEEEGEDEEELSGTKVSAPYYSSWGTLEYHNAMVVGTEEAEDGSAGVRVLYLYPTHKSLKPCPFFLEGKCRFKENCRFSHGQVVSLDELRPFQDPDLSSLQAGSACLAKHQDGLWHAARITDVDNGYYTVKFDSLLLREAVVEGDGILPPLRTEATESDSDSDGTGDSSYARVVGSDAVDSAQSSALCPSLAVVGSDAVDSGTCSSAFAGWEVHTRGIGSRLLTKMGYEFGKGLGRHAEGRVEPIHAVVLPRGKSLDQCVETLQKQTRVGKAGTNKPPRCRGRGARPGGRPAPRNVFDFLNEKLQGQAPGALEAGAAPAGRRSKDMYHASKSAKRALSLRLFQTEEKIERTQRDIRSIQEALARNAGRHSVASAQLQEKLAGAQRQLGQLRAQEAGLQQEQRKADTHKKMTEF
UniProt P12956: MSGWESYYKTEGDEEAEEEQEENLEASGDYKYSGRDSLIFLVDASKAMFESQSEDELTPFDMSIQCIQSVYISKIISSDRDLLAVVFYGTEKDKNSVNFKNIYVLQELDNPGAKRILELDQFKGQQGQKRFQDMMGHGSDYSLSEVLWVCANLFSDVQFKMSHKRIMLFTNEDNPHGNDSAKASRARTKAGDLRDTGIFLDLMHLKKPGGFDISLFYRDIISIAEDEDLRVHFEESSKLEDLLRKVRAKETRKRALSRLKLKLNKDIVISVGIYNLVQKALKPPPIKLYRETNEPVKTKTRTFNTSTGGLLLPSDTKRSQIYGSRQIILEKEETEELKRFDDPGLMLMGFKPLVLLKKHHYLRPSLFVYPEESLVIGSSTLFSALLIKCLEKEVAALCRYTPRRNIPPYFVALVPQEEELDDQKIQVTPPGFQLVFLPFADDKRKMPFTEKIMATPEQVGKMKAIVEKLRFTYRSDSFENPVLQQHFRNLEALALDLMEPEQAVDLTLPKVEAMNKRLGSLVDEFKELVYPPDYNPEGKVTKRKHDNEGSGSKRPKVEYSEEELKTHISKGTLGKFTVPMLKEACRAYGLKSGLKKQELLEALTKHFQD
UniProt Q6NZY4: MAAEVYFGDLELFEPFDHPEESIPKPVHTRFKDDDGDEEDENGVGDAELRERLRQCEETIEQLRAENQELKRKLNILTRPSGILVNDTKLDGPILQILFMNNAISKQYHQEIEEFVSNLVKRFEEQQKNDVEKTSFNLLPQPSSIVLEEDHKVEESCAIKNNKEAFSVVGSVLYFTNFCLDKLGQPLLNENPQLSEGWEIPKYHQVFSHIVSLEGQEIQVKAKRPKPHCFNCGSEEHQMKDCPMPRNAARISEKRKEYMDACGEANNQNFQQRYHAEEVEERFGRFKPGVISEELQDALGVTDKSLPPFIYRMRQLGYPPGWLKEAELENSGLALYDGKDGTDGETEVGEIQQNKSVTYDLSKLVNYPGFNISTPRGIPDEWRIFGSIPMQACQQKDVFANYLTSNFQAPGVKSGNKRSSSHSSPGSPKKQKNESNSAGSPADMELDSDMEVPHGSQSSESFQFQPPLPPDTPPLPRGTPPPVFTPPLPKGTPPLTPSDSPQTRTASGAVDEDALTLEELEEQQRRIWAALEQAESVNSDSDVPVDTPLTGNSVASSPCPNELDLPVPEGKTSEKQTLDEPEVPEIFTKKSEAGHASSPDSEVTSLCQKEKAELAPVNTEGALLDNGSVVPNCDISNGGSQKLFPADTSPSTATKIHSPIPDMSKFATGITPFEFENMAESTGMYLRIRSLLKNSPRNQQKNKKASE

The list shows a part of the results.

Compound in the first test: NC(=O)c1cnc(N[C@@H]2CCCC[C@@H]2N)nc1Nc1cccc(-n2nccn2)c1
The test is described as follows: log2 fold change, soluble protein after heating vs DMSO (PISA); higher = thermal stabilisation; K562 lysate, 10 uM; active = over 0.2 and 3.5 SD of the protein, either way, in both replicates (recomputed). In short, it runs like this: (§1)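 Soluble protein was defined as the supernatant remaining after 21,000xg for 90 min, following pooling of heated aliquots and adjustment to 0.5% NP-40 at 4°C. Before that, crude K562 extract at 1 mg/mL protein in PBS pH 7.4 with 1 mM MgCl2 was treated with 10 μM compound for 30 min and heated for 3 min across 48°C-58°C. Quantification used TMTpro 16plex LC-MS/MS with channel sums equalised, and values are log-two fold changes in thermal stability relative to solvent controls from duplicates.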
Take YBX3 (UniProt P16989): the log2 fold change is inactive: -0.023.
The same measure, in the same setting: then ZBED8 (UniProt Q8IZ13), with inactive: 0.02.
The same measure, in the same setting: then XPO7 (UniProt Q9UIA9), with inactive: 0.007.
The same measure, in the same setting: then YIPF3 (UniProt Q9GZM5), with inactive: -0.045.
For the target XPO6 (UniProt Q96QU8), the log2 fold change was inactive: 0.033.
On the same count and under the same terms, then ZDHHC3 isoform 2 (UniProt Q9NYG2), with inactive: -0.017; and ZFPM1 (UniProt Q8IX07), with inactive: -0.082; and YES1 (UniProt P07947), with inactive: 0.032.
As to ZFAND2B (UniProt Q8WV99), the log2 fold change was inactive: -0.03.
Still for that read-out and setting: then XPO1 (UniProt O14980), with inactive: 0.011; and ZCCHC3 (UniProt Q9NUD5), with inactive: -0.018.
Still for that read-out and setting: then YIPF5 isoform 3 (UniProt Q969M3), with inactive: 0.016; and ZC3H18 (UniProt E7ERS3), with inactive: 0.01.
Take YBX3 isoform 2 (UniProt P16989): the log2 fold change is inactive: 0.053.
Same read-out and setting: then ZC3H4 (UniProt Q9UPT8), with inactive: -0.005; and YJU2 (UniProt Q9BW85), with inactive: -0.018; and ZC3H15 (UniProt Q8WU90), with inactive: -0.004.
On the same count and under the same terms, then YIPF6 (UniProt Q96EC8), with inactive: -0.055.
For the target XRCC1 (UniProt P18887), the log2 fold change was inactive: -0.004.
The same measure, in the same setting: then ZFR (UniProt Q96KR1), with inactive: 0.005; and YME1L1 (UniProt Q96TA2), with inactive: 0.06; and YTHDC2 (UniProt Q9H6S0), with inactive: -0.007.
On the same count and under the same terms, then ZFAND6 (UniProt Q6FIF0), with inactive: -0.083; and ZER1 (UniProt Q7Z7L7), with inactive: -0.039; and XPNPEP3 (UniProt Q9NQH7), with inactive: -0.043.
The same measure, in the same setting: then ZBED1 (UniProt O96006), with inactive: 0.049.
Take XPOT (UniProt O43592): the log2 fold change is inactive: 0.003.
Still for that read-out and setting: then YRDC (UniProt Q86U90), with inactive: 0.01.
Same read-out and setting: then YY1 (UniProt P25490), with inactive: -0.021; and ZGPAT (UniProt Q8N5A5), with inactive: 0.125.
The same measure, in the same setting: then XRCC6 (UniProt P12956), with inactive: 0.001.
On to YKT6 (UniProt O15498), for which the log2 fold change was inactive: 0.006.
With YARS2 (UniProt Q9Y2Z4), the log2 fold change was inactive: -0.014.
Still for that read-out and setting: then ZC3H8 (UniProt Q8N5P1), with inactive: -0.023; and ZCCHC8 (UniProt Q6NZY4), with inactive: 0.001.
Same read-out and setting: then YLPM1 (UniProt P49750), with inactive: 0.041; and ZC3H7B (UniProt Q9UGR2), with inactive: 0.04; and YIPF4 (UniProt Q9BSR8), with inactive: -0.004.
The same measure, in the same setting: then YDJC (UniProt A8MPS7), with inactive: 0.021; and ZBTB21 (UniProt Q9ULJ3), with inactive: -0.007.

Compound in another test: NC1(c2ccc(-c3nc4ccn5c(=O)[nH]nc5c4cc3-c3ccccc3)cc2)CCC1
The test is described as above. An outline of the steps:
as §1
As for YBX3 (UniProt P16989), the log2 fold change was inactive: -0.004.
On the same count and under the same terms, then ZBED8 (UniProt Q8IZ13), with inactive: -0.008.
Take XPO7 (UniProt Q9UIA9): the log2 fold change was inactive: -0.01.
As to YIPF3 (UniProt Q9GZM5), the log2 fold change was inactive: 0.025.
XPO6 (UniProt Q96QU8): the log2 fold change was inactive: -0.04.
The same measure, in the same setting: then ZDHHC3 isoform 2 (UniProt Q9NYG2), with inactive: -0.001; and ZFPM1 (UniProt Q8IX07), with inactive: -0.018.
In the case of YES1 (UniProt P07947), the log2 fold change is inactive: 0.054.
On the same count and under the same terms, then ZFAND2B (UniProt Q8WV99), with inactive: 0.062; and XPO1 (UniProt O14980), with inactive: 0.006.
On to ZCCHC3 (UniProt Q9NUD5), for which the log2 fold change is inactive: 0.082.
On to YIPF5 isoform 3 (UniProt Q969M3), for which the log2 fold change is inactive: 0.035.
Same read-out and setting: then ZC3H18 (UniProt E7ERS3), with inactive: -0.034; and YBX3 isoform 2 (UniProt P16989), with inactive: 0.022.
Still for that read-out and setting: then ZC3H4 (UniProt Q9UPT8), with inactive: -0.037; and YJU2 (UniProt Q9BW85), with inactive: 0.008; and ZC3H15 (UniProt Q8WU90), with inactive: 0.025.
Same read-out and setting: then YIPF6 (UniProt Q96EC8), with inactive: -0.051.
As to XRCC1 (UniProt P18887), the log2 fold change is inactive: 0.026.
As for ZFR (UniProt Q96KR1), the log2 fold change is inactive: 0.
On the same count and under the same terms, then YME1L1 (UniProt Q96TA2), with inactive: -0.059; and YTHDC2 (UniProt Q9H6S0), with inactive: -0.054; and ZFAND6 (UniProt Q6FIF0), with inactive: -0.022.
The same measure, in the same setting: then ZER1 (UniProt Q7Z7L7), with inactive: -0.029.
Regarding XPNPEP3 (UniProt Q9NQH7), the log2 fold change is inactive: -0.025.
Same read-out and setting: then ZBED1 (UniProt O96006), with inactive: 0.05; and XPOT (UniProt O43592), with inactive: -0.001; and YRDC (UniProt Q86U90), with inactive: -0.003.
On to YY1 (UniProt P25490), for which the log2 fold change is inactive: 0.042.
Same read-out and setting: then ZGPAT (UniProt Q8N5A5), with inactive: 0.016.
Same read-out and setting: then XRCC6 (UniProt P12956), with inactive: -0.011; and YKT6 (UniProt O15498), with inactive: 0.013.
Still for that read-out and setting: then YARS2 (UniProt Q9Y2Z4), with inactive: 0.027; and ZC3H8 (UniProt Q8N5P1), with inactive: 0.055; and ZCCHC8 (UniProt Q6NZY4), with inactive: 0.016.
Take YLPM1 (UniProt P49750): the log2 fold change was inactive: -0.013.
As to ZC3H7B (UniProt Q9UGR2), the log2 fold change was inactive: 0.01.
For the target YIPF4 (UniProt Q9BSR8), the log2 fold change is inactive: -0.032.
On the same count and under the same terms, then YDJC (UniProt A8MPS7), with inactive: 0.074.
As to ZBTB21 (UniProt Q9ULJ3), the log2 fold change is inactive: 0.14.
